Results are given in words; binding and its absence hold for the method and conditions named. In cells and extracts the contact can be indirect. Some results given as binding are weak or reduced against the parent protein; the word gives no strength.
Assays:
[1] = biological target: β2-adrenergic receptor (β2AR), full-length, integrated into nanolipoprotein particles (β2AR-NLPs) (human) (UniProt P07550); experiment: condition: only with the antagonist ICI118551 (ICI, 10 μM); pull-down; single-molecule pull-down (SiMPull): as a1, but with 10 μM ICI118551 (antagonist) in place of isoproterenol; only the target purified
[2] = biological target: β2-adrenergic receptor (β2AR), full-length, integrated into nanolipoprotein particles (β2AR-NLPs) (human) (UniProt P07550); experiment: pull-down; single-molecule pull-down (SiMPull): purified β2AR-NLPs immobilized on a chip via biotinylated anti-flag antibody and NeutrAvidin; Gs-mCherry HEK cell lysate diluted 1:10 in T50 buffer (50 mM NaCl, 10 mM Tris-HCl, pH 7.8) with 10 μM isoproterenol (agonist), 10 min at RT; fluorescent spots counted by TIRF microscopy; only the target purified

Amino acid sequences for entries named in this document (tags omitted).
UniProt P63095: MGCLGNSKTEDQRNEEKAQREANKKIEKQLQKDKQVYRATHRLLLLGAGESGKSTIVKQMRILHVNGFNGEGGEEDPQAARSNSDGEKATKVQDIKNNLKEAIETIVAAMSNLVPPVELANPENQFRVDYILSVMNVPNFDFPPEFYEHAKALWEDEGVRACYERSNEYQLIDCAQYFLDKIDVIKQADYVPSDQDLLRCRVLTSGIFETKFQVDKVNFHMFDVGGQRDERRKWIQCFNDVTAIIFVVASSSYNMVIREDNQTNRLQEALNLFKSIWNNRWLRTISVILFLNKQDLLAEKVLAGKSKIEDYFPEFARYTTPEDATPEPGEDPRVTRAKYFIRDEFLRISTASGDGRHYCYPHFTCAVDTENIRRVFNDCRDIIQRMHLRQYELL

- binding [1]: no binding
- binding [2]: binds
Substance: mCherry-labeled Gs protein (from UniProt P63095 1-394)
